Test results from patent EP4196116B1, “PHARMACEUTICAL COMPOSITION COMPRISING CABOZANTINIB, PLERIXAFOR, AFATINIB AND ETORICOXIB FOR USE IN THE TREATMENT OR PROPHYLAXIS OF NSCLC WITHOUT DRIVER MUTATIONS” (Langhammer, Stefan, priority 2020, dated 2022).
At least one compound was matched to its structure with a doubt left.

System: LU7414
Assay: NSCLC patient-derived xenograft (PDX) model LU7414, tumor response per RECIST
Assay type: in vivo, Rj:NMRI-Foxn1nu/nu nude recipient mice
Settings: LU7414, Fig. 2f; monotherapy 15 mg/kg oral, 5 days on / 2 days off; a single tumor, transformed into progressive disease during the later course of treatment

COc1cc2nccc(Oc3ccc(NC(=O)C4(C(=O)Nc5ccc(F)cc5)CC4)cc3)c2cc1OC [cabozantinib]
response in monotherapy group (RECIST): partial response
